Data reported in the supplement of paper PMC5949888.
Most values lie at the floor of the assay. Slopes are relative: functional sequences can read slightly below zero.

Test system: Saccharomyces cerevisiae PS128 hsf1 delta, HSF1(1-493) fusion
Assay: growth estimate (transactivation domain function in HSF1 fusion, heat-shock survival) (a.u. (slope of normalised read count over time)); higher = stronger growth at 37°C, i.e. more transactivation activity
Conditions: library: random library

Substance	growth estimate
IVRNSRGSIVGFAVGRLWGA	< -0.25
IVRPKAPGRGHFIVCVGLHA	< -0.25
IVRSPILGGHPNGFCGMEGS	< -0.25
IVSCRMGTAKALGREVLGGS	< -0.25
IVSLSRTFDVTRTLVAGHPP	< -0.25
IVSRR	< -0.25
IVSVKPGEC	< -0.25
IVSWNQLEGTKKDDVMLNSR	< -0.25
IVTRVRRLFNALHGEGVPAK	< -0.25
IVVATSEKLAGSNAYGCCTM	< -0.25
IVVEVDGGIQKHTGLGALY	< -0.25
IVWLQRGISCHMTSFPAK	< -0.25
IWDGAWVRGDPHNYQAISGI	< -0.25
IWDQICEAAREAVT	< -0.25
IWERPHLPLRA	< -0.25
IWHFA	< -0.25
IWLRKRCPHLRLPTGVPLQV	< -0.25
IWSA	< -0.25
IWSRRIES	< -0.25
IWVRVQEMSTD	< -0.25
IWVSFACITIFSRGPYPFG	< -0.25
IWVSTMVSTGDRRF	< -0.25
IWWRVAS	< -0.25
IYEEGVLATLT	< -0.25

Substance	growth estimate
IYGTLTLPSYCGRRNRAWWL	< -0.25
IYHREERTFESQARRSKFNS	-0.169
IYLTPSSTFENC	< -0.25
IYNNQVPTGTDVFQIPEQGS	< -0.25
IYPSLCSTCQGLSDSGTNTK	< -0.25
IYPSP	< -0.25
IYRGRF	< -0.25
IYRNKQKGVLTLEEPGISGP	< -0.25
IYRR	< -0.25
IYRRRPLRP	< -0.25
IYTGCCGILLRNHLGWDAKV	-0.203
IYTRPVSSWYTSAETLQTGA	< -0.25
IYTYDELNVQWGVCCLMPVK	< -0.25
IYVLSGHAMAE	< -0.25
KAEGASGL	< -0.25
KAGILGDRRPYAGLNSIVPL	< -0.25
KAGSYSCEQSREIVAAGNRS	< -0.25
KAPALCRCTGRFLIRKRCPR	< -0.25
KARGARV	< -0.25
KARGGQNAP	< -0.25
KASAVGGF	< -0.25
KASISRMACGASLGISEECG	< -0.25
KASVG	< -0.25
KATTALGRSDCVVDRVGFHH	< -0.25

Substance	growth estimate
KAVQPRSRISISRMSLNQPR	< -0.25
KCADCADGLIFEAFEGAEHV	< -0.25
KCAKWHARPRSRLGVAKTGT	< -0.25
KCD	< -0.25
KCEAGEYVIKGRWLIGHAID	< -0.25
KCFEKECRVHENIL	< -0.25
KCGCGGNISCYFP	< -0.25
KCGDLECAERYRVFLRSRLP	< -0.25
KCITAPPARLDRLCFSP	< -0.25
KCLGLMLRSPVGLEYTSMLG	-0.243
KCQDVLD	< -0.25
KCQSGDTQSGEDVGLFLRRV	< -0.25
KCRTWTTKNAGAMSFYRLFD	< -0.25
KCSHDV	< -0.25
KCSLKLGHWTQ	-0.25
KCSVTGFTRIWPPNTLLVRV	< -0.25
KCVDFMRLGVLVITFLIFLR	< -0.25
KCVFTERKTKSPGDSASRCS	< -0.25
KCVWPSIRSPPIIGDRGVGS	< -0.25
KCYRGIGLRGLNLRSTQPSA	< -0.25
KDALNVCSYSRLQILSSCYT	< -0.25
KDCKTVTSEAYSVLHRCRCS	< -0.25
KDFLGMGPRFARSRVVASVP	< -0.25
KDGISCARVSRGKGRAVAVL	< -0.25

Substance	growth estimate
KDKENLEVFIHPATHTLCEA	< -0.25
KDNGPYANFRTVPHKCITRL	< -0.25
KDPIRCTSERIHTPSGGLTA	< -0.25
KDPISVVGRGRNDSDIGDMG	< -0.25
KDRHRESSYCFIKTRLVCHQ	< -0.25
KDSRCPGATAWMKTGRLKPP	< -0.25
KECLEYDNVGPRTCEAL	< -0.25
KEG	< -0.25
KEGR	< -0.25
KEGVVLPVSTLALLHSIWLF	< -0.25
KEMHGAGATRELLSVSRDPI	< -0.25
KERKC	< -0.25
KERRRA	< -0.25
KETGR	< -0.25
KETVRLNPVVQRWTLYRLDS	< -0.25
KEVDSAIGV	< -0.25
KEVKHAVGGGMLSIVTRLFS	< -0.25
KFDHGPKDLWSVRWSYCAAG	-0.219
KFG	< -0.25
KFIFGPPAPNMSRPPIIKVL	< -0.25
KFIHAHRIAC	< -0.25
KFLLDGARDYEDAWRENIDW	-0.0382
KFLWCK	0.147
KFRKLQVDKLRRSQRSIGHK	< -0.25

Substance	growth estimate
KFRQYTGSAGQRVSKLQCAG	< -0.25
KFTVRTVSHHILHAVLVLYR	< -0.25
KGALPDSAVAAARLTWHTGG	< -0.25
KGARKGRANSSKSRRRVGRI	< -0.25
KGAWSARIWENEFYVLRAGR	< -0.25
KGCVRRPSTGSCVIHESIGA	< -0.25
KGDACRVDTLGSAICSLRQL	< -0.25
KGDGPRTGQVLRPAPGESSE	< -0.25
KGEQSHKWDDTGR	< -0.25
KGESYYASV	< -0.25
KGETVAARNAVTPAMRRGYA	< -0.25
KGEYIAQVKWQLMS	< -0.25
KGGG	< -0.25
KGIIRAGHS	< -0.25
KGINDLAQRGIL	< -0.25
KGIRVEESYDEQCHKRFTC	< -0.25
KGKDECP	-0.243
KGLDRIPPNCRYMTKKIVTA	< -0.25
KGMAEGFHRSCCTQRLGGAK	< -0.25
KGMRSAVRSTRRRGRRPRAV	< -0.25
KGPSLCVPGLLPPVQLGKWN	< -0.25
KGRSFTALSLAALYYMDR	< -0.25
KGRYAG	< -0.25
KGSTVCRSTQH	< -0.25

Given as a markdown table: part of the list above.

| Substance | growth estimate |
| --- | --- |
| IYHREERTFESQARRSKFNS | -0.169 |
| IYLTPSSTFENC | < -0.25 |
| IYNNQVPTGTDVFQIPEQGS | < -0.25 |
| IYPSLCSTCQGLSDSGTNTK | < -0.25 |
| IYPSP | < -0.25 |
| IYRGRF | < -0.25 |

Next entries follow:

Substance	growth estimate
KGTQVYRSLGGVSDGQAVAR	< -0.25
KGTTYIRRIE	< -0.25
KGVE	< -0.25
KGVLSDKASDSLRKPRPATL	< -0.25
KGWPAVLDVPRGGVTAHSTY	< -0.25
KGWTYVLCYGPG	< -0.25
KGWYWKSREATEWARDSHRR	< -0.25
KGYCIRGKSRSTRTRARCIF	< -0.25
KHG	< -0.25
KHKRHPVRGSNWSVVGYAED	0.0119
KHPVRLPTDQSVQVWGRRPA	< -0.25
KHSAQSGRVTVR	< -0.25
KHSSDDSGPAYG	< -0.25
KIEERRILTLSS	< -0.25
KIGQ	< -0.25
KIHVAPN	< -0.25
KIIEGCTDPRVEADPAVNVS	< -0.25
KIIGQDLVIEVR	< -0.25
KILFVCGGRRREERDLFLLR	< -0.25
KILP	< -0.25
KIPSSGVNSSWTLVSGFYIH	< -0.25
KIRGLSRTGWAAGRSFTNRW	< -0.25
KIT	< -0.25
